Measured values taken from article PMC5662751.
Negatives hold for the conditions tested. At least one verdict was read from the data and is not stated in words by the source. Construct, isoform or probe ends are uncertain for at least one entry.

By UniProt entry, the sequences of proteins in these tests, tags left out. Where a name states a change or a piece, a line headed by the entry shows the natural chain unless it says otherwise.
UniProt P23246: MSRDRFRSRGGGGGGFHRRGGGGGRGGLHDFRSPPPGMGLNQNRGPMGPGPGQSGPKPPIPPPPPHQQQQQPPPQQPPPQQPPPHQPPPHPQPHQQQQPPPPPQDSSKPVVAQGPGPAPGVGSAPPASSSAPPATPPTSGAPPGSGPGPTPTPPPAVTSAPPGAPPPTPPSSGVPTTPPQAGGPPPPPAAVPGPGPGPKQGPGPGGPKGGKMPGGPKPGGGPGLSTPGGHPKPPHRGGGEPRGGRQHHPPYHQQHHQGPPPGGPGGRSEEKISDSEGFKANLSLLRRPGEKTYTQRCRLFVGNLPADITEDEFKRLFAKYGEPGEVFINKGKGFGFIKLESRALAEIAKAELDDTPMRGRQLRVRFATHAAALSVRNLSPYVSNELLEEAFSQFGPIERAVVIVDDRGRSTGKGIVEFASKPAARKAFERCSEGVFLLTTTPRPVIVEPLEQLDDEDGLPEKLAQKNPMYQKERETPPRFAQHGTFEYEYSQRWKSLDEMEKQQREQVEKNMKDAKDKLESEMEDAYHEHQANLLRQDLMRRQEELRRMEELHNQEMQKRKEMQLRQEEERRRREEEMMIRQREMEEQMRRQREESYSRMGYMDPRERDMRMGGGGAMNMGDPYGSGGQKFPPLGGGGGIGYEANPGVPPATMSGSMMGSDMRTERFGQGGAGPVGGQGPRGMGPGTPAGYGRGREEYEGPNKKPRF
UniProt Q9UKV8, whole entry: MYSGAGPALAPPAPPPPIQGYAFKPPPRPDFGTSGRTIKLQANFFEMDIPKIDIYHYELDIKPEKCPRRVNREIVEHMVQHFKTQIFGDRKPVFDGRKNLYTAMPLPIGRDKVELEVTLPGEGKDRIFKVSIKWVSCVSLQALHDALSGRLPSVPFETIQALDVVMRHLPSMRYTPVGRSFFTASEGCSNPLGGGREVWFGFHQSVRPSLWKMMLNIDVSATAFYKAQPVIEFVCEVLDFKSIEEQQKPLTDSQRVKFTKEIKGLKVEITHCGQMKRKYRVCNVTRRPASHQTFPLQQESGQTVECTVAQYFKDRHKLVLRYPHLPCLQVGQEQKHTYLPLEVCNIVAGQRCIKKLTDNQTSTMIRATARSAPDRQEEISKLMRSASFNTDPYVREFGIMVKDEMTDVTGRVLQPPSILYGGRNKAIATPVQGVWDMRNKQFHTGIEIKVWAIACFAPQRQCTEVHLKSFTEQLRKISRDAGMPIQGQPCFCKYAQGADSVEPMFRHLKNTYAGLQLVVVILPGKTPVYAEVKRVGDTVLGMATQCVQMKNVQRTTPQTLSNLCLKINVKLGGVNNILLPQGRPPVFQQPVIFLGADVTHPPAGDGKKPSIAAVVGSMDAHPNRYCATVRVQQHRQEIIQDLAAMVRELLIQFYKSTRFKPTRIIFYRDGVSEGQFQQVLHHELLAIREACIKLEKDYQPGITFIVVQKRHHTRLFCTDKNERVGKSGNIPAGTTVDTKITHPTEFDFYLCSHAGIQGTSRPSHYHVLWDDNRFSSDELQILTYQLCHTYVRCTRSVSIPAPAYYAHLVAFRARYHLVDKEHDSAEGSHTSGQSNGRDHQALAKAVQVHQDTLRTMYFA

Legend:
Sfpq wild-type (human) = Sfpq wild-type (human) (UniProt P23246); assay: EMSA; conditions: EMSA: 75 mM Hepes pH 7.9, 150 mM NaCl, 75 mM KCl, 0.1 mM EDTA, 5 mM DTT, 5 mM PMSF, 15% glycerol, 15 min, room temperature; recombinant protein; residues 1-707; protein details: 6xHis (pET15b); label: 32P
Ago2 = Ago2 (UniProt Q9UKV8); assay: EMSA; conditions: EMSA: 75 mM Hepes pH 7.9, 150 mM NaCl, 75 mM KCl, 0.1 mM EDTA, 5 mM DTT, 5 mM PMSF, 15% glycerol, 15 min, room temperature; commercial protein; label: 32P

Row | Sequence | binding result (Sfpq wild-type (human)) | binding result (Ago2)
1 | AUGUAAUGUA [Motif#2 n2 (AUGUA x2)] | binds | no binding
2 | CCCCGCCCCG [Sfpq negative RNA oligo (CCCCG x2)] | no binding | –
3 | CUGACUGA [Motif#1 n2 (CUGA x2)] | binds | no binding
4 | CUGUACUGUA [CUGU/CUGUA x2 oligo] | binds | no binding
5 | GUGUAGUGUA [Motif#2 n3 (GUGUA x2)] | binds | no binding
6 | UUGUAUUGUA [Motif#2 n1 (UUGUA x2)] | binds | no binding
